{"source": "patent US7601685B2", "about": "(Eidgenossische Technische Hochschule Zurich, priority 1998, dated 2009)", "experiment": "peptide synthesis", "conditions": "whole synthesis, TFA salt", "note": "End groups of sequences in plain letters are not given here.", "data": [{"sequence": "NQEQVSPLYKNRSVSEIQLMHNLGKHLNSMERVEWLRKKLQDVHNF (Modified parathyroid hormone from Homo sapiens)", "values": [{"measurement": "final purity (method not given)", "value": 95, "unit": "%"}]}, {"sequence": "NQEQVSPLSVSEIQLMHNLGKHLN SMERVEWLRKKLQDVHNF (NQEQVSPLSVSEIQLMHNLGKHLNSMERVEWLRKKLQDVHNF; Modified parathyroid hormone from Homo sapiens)", "values": [{"measurement": "final purity (method not given)", "value": 95, "unit": "%"}]}]}
